# Some of these results come from one statement about several compounds together.
# What was measured:
# porcine liver esterase = assay: Hydrolysis of fumarate compounds in vitro by porcine liver esterase; format: in vitro ADME; conditions: porcine liver esterase in PBS pH 7.0 to 8.0, 20 to 37° C., ca. 24 h, HPLC
# [1] = Stability of fumarate compounds in PBS buffer; format: physicochemical; conditions: PBS 50 mM, pH 7.0 to 7.4, 20 to 37° C., 60 min, HPLC
Structure (SMILES),converted to monoester fumarates and/or fumaric acid (porcine liver esterase) [%],stable in PBS buffer [1] [%]
"COC(=O)/C=C/C(=O)OCCNS(C)(=O)=O [Compound 1, O4-[2-(Methanesulfonamido)ethyl] O1-methyl (E)-but-2-enedioate]",> 20,> 90
"CCS(=O)(=O)NCCOC(=O)/C=C/C(=O)OC [Compound 2, O4-[2-(Ethylsulfonylamino)ethyl] O1-methyl (E)-but-2-enedioate]",> 20,> 90
"COC(=O)/C=C/C(=O)OCCNS(=O)(=O)C(C)C [Compound 3, O4-[2-(Isopropylsulfonylamino)ethyl] O1-methyl (E)-but-2-enedioate]",> 20,> 90
"COC(=O)/C=C/C(=O)OCCNS(=O)(=O)c1ccccc1 [Compound 4, O4-[2-(Benzenesulfonamido)ethyl] O1-methyl (E)-but-2-enedioate]",> 20,> 90
"COC(=O)/C=C/C(=O)OCCCNS(C)(=O)=O [Compound 5, O4-[3-(Methanesulfonamido)propyl] O1-methyl (E)-but-2-enedioate]",> 20,> 90
"CCS(=O)(=O)NCCCOC(=O)/C=C/C(=O)OC [Compound 6, O4-[3-(Ethylsulfonylamino)propyl] O1-methyl (E)-but-2-enedioate]",> 20,> 90
"COC(=O)/C=C/C(=O)OCCCNS(=O)(=O)C(C)C [Compound 7, O4-[3-(Isopropylsulfonylamino)propyl] O1-methyl (E)-but-2-enedioate]",> 20,> 90
"COC(=O)/C=C/C(=O)OCCCNS(=O)(=O)c1ccccc1 [Compound 8, O4-[3-(Benzenesulfonamido)propyl] O1-methyl (E)-but-2-enedioate]",> 20,> 90
"CCOC(=O)/C=C/C(=O)OCCNS(C)(=O)=O [Compound 9, O1-Ethyl O4-[2-(methanesulfonamido)ethyl] (E)-but-2-enedioate]",> 20,> 90
"CC(C)OC(=O)/C=C/C(=O)OCCNS(C)(=O)=O [Compound 10, O4-Isopropyl O1-[2-(methanesulfonamido)ethyl] (E)-but-2-enedioate]",> 20,> 90
"CCOC(=O)/C=C/C(=O)OCCCNS(C)(=O)=O [Compound 11, O1-Ethyl O4-[3-(methanesulfonamido)propyl] (E)-but-2-enedioate]",> 20,> 90
"CC(C)OC(=O)/C=C/C(=O)OCCCNS(C)(=O)=O [Compound 12, O4-Isopropyl O1-[3-(methanesulfonamido)propyl] (E)-but-2-enedioate]",> 20,> 90

# Reference: patent US20170020837A1, “FUMARATE COMPOUNDS, PHARMACEUTICAL COMPOSITIONS THEREOF, AND METHODS OF USE” (priority 2015, published 2017)
